Source: the supplement of paper PMC3334620
The full ranking holds about 33,000 sequences; the median of “E-score (-0.5 to 0.5)” is about -0.016, and the highest 2% start at about 0.3. Some of the results follow.

molecular target: T1, Yer184c (UniProt P39961); assay: PBM E-score (8-mer binding enrichment) (E-score (-0.5 to 0.5)); higher = stronger / more preferred TF binding; conditions: protein concentration: 100 nM; construct: GST-full length
T1 sequence: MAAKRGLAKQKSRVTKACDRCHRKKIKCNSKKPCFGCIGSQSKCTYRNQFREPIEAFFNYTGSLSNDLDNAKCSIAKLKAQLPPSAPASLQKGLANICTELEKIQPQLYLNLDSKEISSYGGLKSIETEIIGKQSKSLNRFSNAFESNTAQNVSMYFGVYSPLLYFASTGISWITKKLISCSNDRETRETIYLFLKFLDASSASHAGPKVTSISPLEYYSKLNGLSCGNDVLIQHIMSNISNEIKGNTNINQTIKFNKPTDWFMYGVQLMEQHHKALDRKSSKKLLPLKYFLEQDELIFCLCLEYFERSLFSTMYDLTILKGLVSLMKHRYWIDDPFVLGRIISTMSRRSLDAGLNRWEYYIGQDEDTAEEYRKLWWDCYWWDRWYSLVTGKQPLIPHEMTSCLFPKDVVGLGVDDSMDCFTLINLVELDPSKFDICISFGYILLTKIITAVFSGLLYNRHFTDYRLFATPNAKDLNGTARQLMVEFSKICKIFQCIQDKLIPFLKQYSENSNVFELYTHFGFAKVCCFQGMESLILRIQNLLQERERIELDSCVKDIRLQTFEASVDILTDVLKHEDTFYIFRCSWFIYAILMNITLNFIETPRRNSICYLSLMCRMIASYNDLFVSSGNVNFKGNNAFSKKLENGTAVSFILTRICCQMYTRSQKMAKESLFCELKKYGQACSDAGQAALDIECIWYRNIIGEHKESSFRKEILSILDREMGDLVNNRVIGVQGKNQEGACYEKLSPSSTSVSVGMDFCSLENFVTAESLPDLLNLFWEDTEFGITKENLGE
Description: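 Universal 'all 10-mer' protein binding microarrays (Agilent AMADID 015681) probed with GST-tagged S. cerevisiae TFs (full-length or DBD) made by in vitro transcription/translation (PURExpress), about 100-200 nM. Bound TF was detected with fluorescent anti-GST. Each ungapped 8-mer (which stands for itself and its reverse complement) is scored by the PBM enrichment score (E-score), a modified Wilcoxon-Mann-Whitney statistic from -0.5 to +0.5, computed with the Universal PBM Analysis Suite. Scale: above 0.35 generally sequence-specific binding.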

| Sequence | PBM E-score |
| --- | --- |
| CCCAACGC | -0.137 |
| ACAAGAAT | 0.151 |
| CAGAGCAG | -0.00548 |
| ACGGCCCG | 0.146 |
| AATTGTAC | 0.145 |
| GACACCTA | -0.129 |
| GTTCATAA | 0.107 |
| GTCTGTTA | 0.122 |
| AATCTACC | 0.122 |
| TACAACAA | 0.132 |
| TGCGTACA | -0.132 |
| CGCTGAGA | -0.0171 |
| ACTGTCCG | 0.219 |
| AACCTTAC | 0.0211 |
| CTGTGGTA | -0.0552 |
| GCCAGAAA | 0.126 |
| AGGGCGGC | -0.251 |
| ACACTTCT | -0.145 |
| ATTGATAG | 0.102 |
| CCATATAC | 0.0285 |
| CAGCAGTC | -0.145 |
| ATATAACA | 0.309 |

| Sequence | PBM E-score |
| --- | --- |
| CTATGAAA | 0.00567 |
| AGTTAATA | 0.26 |
| AGACAGCT | -0.157 |
| CTCACCGC | -0.19 |
| GCACCCGC | 0.0546 |
| AGGGTGAT | -0.142 |
| CGAATCGC | -0.0435 |
| ACTGCACT | -0.0821 |
| CGCAAAAC | 0.0423 |
| CTTGAGAC | -0.0888 |
| CATGACCG | -0.0859 |
| CACGAATG | 0.00716 |
| AGACCTCT | -0.243 |
| ACGCCTTC | -0.122 |
| ATAGGTAA | -0.0606 |
| ATGCCCAT | -0.15 |
| CATCGTCG | -0.0407 |
| ACTGCACA | 0.0302 |
| CGAAGACC | -0.00016 |
| AGTCGCCA | -0.195 |
| CTCTTAAG | -0.00772 |
| ATCCCCGG | 0.185 |

| Sequence | PBM E-score |
| --- | --- |
| CTTTGAGC | -0.162 |
| ATCCTGCG | -0.0171 |
| CATTATTC | 0.113 |
| TCCTTCCA | -0.209 |
| GGGAAGAA | -0.0284 |
| ACACAAGG | -0.164 |
| ATAGGTCG | -0.0995 |
| CCATAGGC | -0.236 |
| ACGAGCTG | -0.0534 |
| CAAGCGCA | 0.0414 |
| CTTCTGAC | -0.218 |
| ACATGAAC | 0.041 |
| ATCACAGG | -0.118 |
| TGCTCCAA | 0.00011 |
| TCTCGTAA | 0.0419 |
| GTATTCAC | 0.249 |
| AAACGTAC | -0.0505 |
| ATGCTACG | -0.111 |
| CCCAGTCG | -0.145 |
| GAGCATAA | 0.186 |
| AAATTTAA | 0.272 |
| AATTTCTG | 0.146 |

As a short view, part of the list above:

| Sequence | PBM E-score |
| --- | --- |
| CATTATTC | 0.113 |
| TCCTTCCA | -0.209 |

Later entries:

| Sequence | PBM E-score |
| --- | --- |
| ATACGTAG | -0.109 |
| GTTCTGCA | -0.0675 |
| ACTCAGCC | -0.154 |
| CCGTGCTA | -0.0846 |
| CTCATAAC | -0.017 |
| ATGACAAT | 0.18 |
| ACCGGCGT | 0.214 |
| TCGCTACA | -0.303 |
| ATGAATGC | 0.0146 |
| CCACCAAC | -0.104 |
| TAAAGACA | -0.135 |
| CGCCTCTC | -0.356 |
| GAATGCTC | -0.157 |
| CAGGCTGA | -0.177 |
| GCCCCCCA | -0.389 |
| ACTTTTCT | -0.044 |
| ATGCTGCA | -0.0853 |
| ACTGCCGA | 0.262 |
| CACACAAC | 0.00749 |
| GCTACAGC | -0.0202 |
